This series is described as follows: Permeability and efflux ratio in Caco-2 cells. The conditions noted are these: human. The format is in vitro ADME. As to the method:
Human colon carcinoma (Caco-2) cells, which were obtained from Military Medical Research Institute, were maintained in Dulbecco’s modified Eagle’s medium. Caco-2 cells were seeded onto […] (PET) in 96-well Falcon insert systems at 2 × 10^5 cells/cm^2 for 21–28 days for confluent cell monolayer formation. […] Test compounds were diluted with the transport buffer (HBSS without BSA) from a 10 mM stock solution to a concentration of 10 µM and applied to the apical or basolateral side of the cell monolayer. Permeation of the test compounds in the direction from A to B or from B to A was determined in duplicate over a 120-min incubation at 37 °C and 5% CO2 with a relative humidity of 95%. In addition, the efflux ratio of each compound was also determined. Test and reference compounds were quantified by LC-MS/MS analysis based on the peak area ratio of analyte/IS. The apparent permeability coefficient Papp (cm/s) was calculated using the following equation:Papp = (dCr/dt) × Vr/(A × C0) where dCr/dt is the cumulative concentration of the compound in the receiver chamber as a function of time (S); Vr is the solution volume in the receiver chamber (0.1 mL on the apical side, 0.25 mL on the basolateral side); A is the surface area for the transport, i.e., 0.0804 cm^2 for the area of the monolayer; C0 is the initial concentration in the donor chamber. […]
On the technique in general: Passage across Caco-2 layers is used to estimate intestinal permeability.

In PMC10931676 (International Journal of Molecular Sciences, 2024) one finds recovery and Papp A→B data, which are given here for one compound.

A word on the Papp A→B: it is how fast a substance crosses the layer from the apical side. In the case of `CC(C)NCC(O)COc1ccc(CC(N)=O)cc1` (centres unmarked) [Atenolol], the recovery at 120 min, 10 µM (Caco-2, Caco-2, 10 µM, 120 min, read-out: Mean Recovery % A to B) amounted to 90.9%. For the setting “Caco-2, 10 µM, 120-min incubation, 37 °C”, the Papp A→B at 120 min, 10 µM is 0.73 ×10⁻⁶ cm/s.
